Experimental data from paper doi:10.1101/2019.12.16.877498.

Sequences of proteins named here, by UniProt entry; tags and fusion partners are left off. A change or cut given only in a name is not applied to a line headed by its entry.
UniProt Q8TDG2: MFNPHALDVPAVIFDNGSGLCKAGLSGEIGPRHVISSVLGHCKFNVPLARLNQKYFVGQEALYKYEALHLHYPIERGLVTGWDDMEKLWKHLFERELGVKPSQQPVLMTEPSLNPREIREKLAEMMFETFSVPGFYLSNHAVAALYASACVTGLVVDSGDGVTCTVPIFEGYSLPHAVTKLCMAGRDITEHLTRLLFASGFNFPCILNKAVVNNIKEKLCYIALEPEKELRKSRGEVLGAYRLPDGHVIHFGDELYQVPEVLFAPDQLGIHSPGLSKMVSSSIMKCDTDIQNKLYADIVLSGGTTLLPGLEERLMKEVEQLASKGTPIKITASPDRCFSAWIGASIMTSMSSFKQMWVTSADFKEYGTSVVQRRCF
UniProt P23258: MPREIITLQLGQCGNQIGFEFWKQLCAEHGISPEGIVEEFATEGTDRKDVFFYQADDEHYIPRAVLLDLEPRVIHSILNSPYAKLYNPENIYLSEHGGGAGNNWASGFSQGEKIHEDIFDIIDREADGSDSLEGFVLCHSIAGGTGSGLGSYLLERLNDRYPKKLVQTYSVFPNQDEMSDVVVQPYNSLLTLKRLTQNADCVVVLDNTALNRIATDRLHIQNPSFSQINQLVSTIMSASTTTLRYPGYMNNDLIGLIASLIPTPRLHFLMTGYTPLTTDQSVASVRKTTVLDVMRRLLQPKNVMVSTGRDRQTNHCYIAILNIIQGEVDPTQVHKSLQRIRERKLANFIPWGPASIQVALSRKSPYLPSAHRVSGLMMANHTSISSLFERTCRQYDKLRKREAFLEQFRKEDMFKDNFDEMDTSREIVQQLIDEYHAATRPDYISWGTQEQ

How the values were obtained:
[1] = target: ARP-T1, endogenous (human (endogenous in hTERT-RPE1)) (UniProt Q8TDG2); test: proximity ligation
[2] = target: Actin-Related Protein-Testis1 (ARP-T1), wild type, tagged with Myc-DDK (human) (UniProt Q8TDG2); test: co-IP

binding [1]: binds
binding [2]: binds
Substance: γ-Tubulin (from UniProt P23258)

These are yes or no findings as the source states them, for the method shown. Binding seen in cells or lysates may run through a third protein. Binding calls can cover weak binding; strength is not graded here.
